Laboratory results taken from patent US10214766B2, “Luminescent substrate for use in artificial bioluminescent enzyme” (NATIONAL INSTITUTE OF ADVANCED INDUSTRIAL SCIENCE AND …, priority 2013, dated 2019).

tested on: ALuc34; test: Bioluminescence spectrum of ALuc34 lysate with luminescent substrate; assay type: biochemical; conditions: 5 μL lysate + 30 μL substrate, AB-1850

| Structure (SMILES) | Spectrum peak ALuc34 |
| --- | --- |
| O=c1c(Cc2ccccc2)nc2c(Cc3ccccc3)[nH]c(-c3ccc(O)cc3)cn1-2 [CTZ h, coelenterazine h] | 519 nm |
| O=c1c(Cc2ccc(I)cc2)nc2c(Cc3ccccc3)[nH]c(-c3ccc(O)cc3)cn1-2 [CTZ i, coelenterazine i] | 526 nm |
| O=c1c(Cc2ccc(F)cc2)nc2c(Cc3ccccc3)[nH]c(-c3ccc(O)cc3)cn1-2 [CTZ f, coelenterazine f] | 515 nm |
